# Results deposited as PubChem BioAssay AID1259254 (NCATS, 2017)
# Aim: 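Finding genes that stop cells copying their DNA twice in one cycle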 (primary screen)
# Cells: human HCT116 colorectal cancer cells
# Knock-down reagent: single siRNA against human genes
# Time to read-out: 3 days
# Measured: 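Imaged Hoechst DNA stain sorts each cell into a cycle phase by DNA amount; per plate, G2 fraction set to 0% for non-targeting and 100% for GMNN siRNA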
# Reading the numbers: G2 robust z-score: higher = more G2 cells, more excess DNA replication
# Rule for the call: 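Active siRNAs have a G2 robust z of 5 or more median absolute deviations over the median, which in these data means about 38% or higher of GMNN control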
# The whole screen tested about 59,000 reagents; below is a random part of them. About 1,550 of them (2.6%) were called active. 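G2 share is only a proxy for re-replication; each gene was hit by three separate siRNAs, and active genes were retested.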 The numbers tell different reagents against one gene apart. Not all columns of the deposit are shown. Not stated in the record: the amount of reagent.
target,reagent,G2 robust z-score,call
COL13A1 (GeneID 1305),1,0.148,inactive
COL13A1 (GeneID 1305),2,-0.313,inactive
COL13A1 (GeneID 1305),3,-0.805,inactive
GOLGA6L9 (GeneID 440295),1,0.0964,inactive
GOLGA6L9 (GeneID 440295),2,-0.65,inactive
GOLGA6L9 (GeneID 440295),3,-0.275,inactive
SKP1P2 (GeneID 728622),1,2.08,inactive
SKP1P2 (GeneID 728622),2,-0.665,inactive
SKP1P2 (GeneID 728622),3,0.406,inactive
GKAP1 (GeneID 80318),1,2.42,inactive
GKAP1 (GeneID 80318),2,-0.206,inactive
GKAP1 (GeneID 80318),3,1.31,inactive
RETN (GeneID 56729),1,0.458,inactive
RETN (GeneID 56729),2,0.105,inactive
RETN (GeneID 56729),3,-0.722,inactive
RPS8 (GeneID 6202),1,6.24,active
RPS8 (GeneID 6202),2,3.83,inactive
RPS8 (GeneID 6202),3,4.58,inactive
EPYC (GeneID 1833),1,-0.414,inactive
EPYC (GeneID 1833),2,0.297,inactive
EPYC (GeneID 1833),3,1.33,inactive
KAZALD1 (GeneID 81621),1,1.18,inactive
KAZALD1 (GeneID 81621),2,-0.539,inactive
KAZALD1 (GeneID 81621),3,-0.525,inactive
SNTN (GeneID 132203),1,-0.693,inactive
SNTN (GeneID 132203),2,2.26,inactive
SNTN (GeneID 132203),3,1.58,inactive
ACTR1B (GeneID 10120),1,-0.422,inactive
ACTR1B (GeneID 10120),2,-0.592,inactive
ACTR1B (GeneID 10120),3,0.8,inactive
RMI2 (GeneID 116028),1,2.47,inactive
RMI2 (GeneID 116028),2,-0.863,inactive
RMI2 (GeneID 116028),3,-0.123,inactive
TNFSF8 (GeneID 944),1,1.74,inactive
TNFSF8 (GeneID 944),2,-0.362,inactive
TNFSF8 (GeneID 944),3,1.66,inactive
CLCNKA (GeneID 1187),1,-1.22,inactive
CLCNKA (GeneID 1187),2,3.74,inactive
CLCNKA (GeneID 1187),3,0.52,inactive
FRS2 (GeneID 10818),1,5.05,active
FRS2 (GeneID 10818),2,3.64,inactive
FRS2 (GeneID 10818),3,-0.256,inactive
AURKA (GeneID 6790),1,2.17,inactive
AURKA (GeneID 6790),2,5.53,active
AURKA (GeneID 6790),3,6.86,active
ACP7 (GeneID 390928),1,2.83,inactive
ACP7 (GeneID 390928),2,3.37,inactive
ACP7 (GeneID 390928),3,1.26,inactive
GNAI1 (GeneID 2770),1,0.991,inactive
GNAI1 (GeneID 2770),2,0.903,inactive
GNAI1 (GeneID 2770),3,-0.476,inactive
NDUFS3 (GeneID 4722),1,-0.893,inactive
NDUFS3 (GeneID 4722),2,-0.718,inactive
NDUFS3 (GeneID 4722),3,0.133,inactive
KCNK10 (GeneID 54207),1,0.625,inactive
KCNK10 (GeneID 54207),2,-0.665,inactive
KCNK10 (GeneID 54207),3,-0.279,inactive
SOCS2-AS1 (GeneID 144481),1,0.76,inactive
SOCS2-AS1 (GeneID 144481),2,0.153,inactive
SOCS2-AS1 (GeneID 144481),3,0.872,inactive
RANBP1 (GeneID 5902),1,-0.205,inactive
RANBP1 (GeneID 5902),2,-0.604,inactive
RANBP1 (GeneID 5902),3,-0.0857,inactive
SNRNP48 (GeneID 154007),1,-0.839,inactive
SNRNP48 (GeneID 154007),2,-0.188,inactive
SNRNP48 (GeneID 154007),3,-0.674,inactive
PCBP1 (GeneID 5093),1,-0.255,inactive
PCBP1 (GeneID 5093),2,0.468,inactive
PCBP1 (GeneID 5093),3,-0.462,inactive
ZNF625 (GeneID 90589),1,2.33,inactive
ZNF625 (GeneID 90589),2,-0.184,inactive
ZNF625 (GeneID 90589),3,0.495,inactive
PPP1R1C (GeneID 151242),1,0.661,inactive
PPP1R1C (GeneID 151242),2,0.123,inactive
PPP1R1C (GeneID 151242),3,1.66,inactive
FMN2 (GeneID 56776),1,-0.151,inactive
FMN2 (GeneID 56776),2,-0.898,inactive
FMN2 (GeneID 56776),3,-0.77,inactive
SSBP2 (GeneID 23635),1,-0.381,inactive
SSBP2 (GeneID 23635),2,-0.508,inactive
SSBP2 (GeneID 23635),3,-0.201,inactive
PDE8B (GeneID 8622),1,-0.81,inactive
PDE8B (GeneID 8622),2,-0.64,inactive
PDE8B (GeneID 8622),3,-0.688,inactive
FRRS1L (GeneID 23732),1,2.5,inactive
FRRS1L (GeneID 23732),2,-0.443,inactive
FRRS1L (GeneID 23732),3,2.08,inactive

Entries listed so far whose target name starts with C or c (6):
target,reagent,G2 robust z-score,call
COL13A1 (GeneID 1305),1,0.148,inactive
COL13A1 (GeneID 1305),2,-0.313,inactive
COL13A1 (GeneID 1305),3,-0.805,inactive
CLCNKA (GeneID 1187),1,-1.22,inactive
CLCNKA (GeneID 1187),2,3.74,inactive
CLCNKA (GeneID 1187),3,0.52,inactive
